By UniProt entry, the sequences of proteins in these tests, tags left out.
UniProt Q0JBA9, entry or part of it: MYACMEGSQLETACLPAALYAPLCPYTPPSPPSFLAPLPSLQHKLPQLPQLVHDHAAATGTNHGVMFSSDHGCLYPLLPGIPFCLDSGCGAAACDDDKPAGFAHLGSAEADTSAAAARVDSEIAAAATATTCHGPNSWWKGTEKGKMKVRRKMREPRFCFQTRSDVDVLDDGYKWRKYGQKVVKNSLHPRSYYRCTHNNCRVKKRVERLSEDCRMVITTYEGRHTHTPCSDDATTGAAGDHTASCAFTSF

Some of the results follow.
Each sequence was assayed against OsWRKY34 (Oryza sativa, UniProt Q0JBA9 1-250) (assay: protein-binding microarray (RPBM); PBS, 2% BSA, 51.3 ng/ul salmon testes DNA, 50 uM zinc acetate, 200 nM TF, 25 C, 1 h; high values mean tight binding). Conditions: protein: recombinant; tags: N-terminal polyhistidine and DsRed monomer fusion (pET32a); label: CyDye5-dUTP incorporated in the synthesized complementary strand; 3' TTTTT single-stranded linker to array surface; dsDNA, one strand shown.
In short: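 Binding signal is reported as fluorescence intensity per feature (arbitrary units) from an Axon 4000B scanner. Incubation used 200 nM of each Ni–NTA-purified, N-terminally polyhistidine- and DsRed-fused transcription factor from E. coli BL21-CodonPlus on a double-stranded custom Agilent array for 1 h at 25 °C, with 50 µM zinc acetate in the buffer, followed by washing.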
“CAACTCTCCCAACCCCTCGCGTTGTGCGTTTGCATACGTCCGGAGTCACCTAGTGCAG” was tested, and the binding signal was 8280 fluorescence intensity (a.u.).
With “GGATTTTTTTTTAGACTTGTGTACTTTTTTCCTTCTAAATCGGAGTCACCTAGTGCAG” the binding signal was 10500 fluorescence intensity (a.u.).
In the case of “TGTTCCATTCTGGCTTGTAGGAGTGGTGGGGAGTTTGATCCGGAGTCACCTAGTGCAG”, the binding signal is reported as 8660 fluorescence intensity (a.u.).
With “GAGCTGGGATGCATGGGAACTAACCCGCCAATCTACTTACCGGAGTCACCTAGTGCAG” the binding signal was 8370 fluorescence intensity (a.u.).
With “TTCATTCAACGTACACTTCAACCATCTATATTTCTTTTAACGGAGTCACCTAGTGCAG” the binding signal was 8220 fluorescence intensity (a.u.).
With “TACAAACGCAGACGCTCATAACGCGCGCACGCTCACCCCTCGGAGTCACCTAGTGCAG” the binding signal was 8180 fluorescence intensity (a.u.).
For “ACTACCACATGATCCCAGGTCATTTTCCGTTTTCGTGTCACGGAGTCACCTAGTGCAG”, the binding signal was 11300 fluorescence intensity (a.u.).
For “TATATTTAGTACTTTATGCAAGTGTTTAAACGTTTCATGTCGGAGTCACCTAGTGCAG”, the binding signal was 9060 fluorescence intensity (a.u.).
For “TTTTTTTTGTCGTGGTTGAGATGATGCATGCAGTTCATTTCGGAGTCACCTAGTGCAG”, the binding signal was 8430 fluorescence intensity (a.u.).
For “CGTCTCGTCGTTCAAATCGTCCGCACCAAAAACCCACACCCGGAGTCACCTAGTGCAG”, the binding signal was 9560 fluorescence intensity (a.u.).
“TCATTTTATTCTTTAATTTGTTGTTGGATATTTTTTAAATCGGAGTCACCTAGTGCAG” was tested, and the binding signal was 8060 fluorescence intensity (a.u.).
In the case of “AATTCCCAAAATATACAGTTTTTGTTATTCAGATGTTTACCGGAGTCACCTAGTGCAG”, the binding signal is reported as 8130 fluorescence intensity (a.u.).
“CCCTCCAACCAATCAAACGGGCCGTCTGCTCTTTTCTCACCGGAGTCACCTAGTGCAG” was tested, and the binding signal was 8680 fluorescence intensity (a.u.).
With “CCTGTGGTCCGCCCATCCACCCACCCGCGCACCCCGCCGGCGGAGTCACCTAGTGCAG” the binding signal was 10500 fluorescence intensity (a.u.).
With “CGATGGGTTGGTCGGGAGGTAGAGACTTTTATTACGCCTTCGGAGTCACCTAGTGCAG” the binding signal was 8650 fluorescence intensity (a.u.).
With “AACACTTGCACGCTCAATCGCTTCCCGCACCCAAAACCACCGGAGTCACCTAGTGCAG” the binding signal was 8080 fluorescence intensity (a.u.).
For “ATAGAGCAGGGTTTTGGAGAGGACAGCATCAGGACACATTCGGAGTCACCTAGTGCAG”, the binding signal was 8890 fluorescence intensity (a.u.).
“TTTGTCTTCTTACCTGCCAAGTCCTTGTCACTGTTGTAGCCGGAGTCACCTAGTGCAG” was tested, and the binding signal was 8200 fluorescence intensity (a.u.).
With “ATGACAAGTTGATTTGGTGTACTTTTTCCTCGCAACTAAACGGAGTCACCTAGTGCAG” the binding signal was 8750 fluorescence intensity (a.u.).
“CGCCGCGTCCGCTTCGACTCCCGCCGCCAGGTTCTCTCTCCGGAGTCACCTAGTGCAG” was tested, and the binding signal was 10300 fluorescence intensity (a.u.).
“GCTTTGCATTTTGATGAATTTTCTGCTCGCTTTTTATTTTCGGAGTCACCTAGTGCAG” was tested, and the binding signal was 8780 fluorescence intensity (a.u.).
With “AATAATGTTCGCCTGTATATTGTGTTGTACGTGCTCTTTTCGGAGTCACCTAGTGCAG” the binding signal was 10800 fluorescence intensity (a.u.).
With “AACTAAACGCCGTGGTCGTCGTCGCTTCGTATTCCATTTTCGGAGTCACCTAGTGCAG” the binding signal was 9140 fluorescence intensity (a.u.).
With “CACTCCGCTGCCGCCCGCCGGAAGGGGAGGGGAGGAGGGGCGGAGTCACCTAGTGCAG” the binding signal was 11700 fluorescence intensity (a.u.).
In the case of “ATCCCCGTCACTCACATGCAGCTTCACTTCCAAAATGTTCCGGAGTCACCTAGTGCAG”, the binding signal is reported as 12200 fluorescence intensity (a.u.).
With “CCCGCCCGGCTGCACTGCATATCTACCTTTTCTCACGTCACGGAGTCACCTAGTGCAG” the binding signal was 8320 fluorescence intensity (a.u.).
“TCTCGATTGCGCTTTGGTTAGACTGGTTAAAACGGTTGACCGGAGTCACCTAGTGCAG” was tested, and the binding signal was 8640 fluorescence intensity (a.u.).
For “GGGGTTGATAACTAATAATCTTGCTCACTTTTCAGCCGTTCGGAGTCACCTAGTGCAG”, the binding signal was 11500 fluorescence intensity (a.u.).
In the case of “TTATTCAGTTTTTTTATACTTGTACAAATAGCTTTTACTTCGGAGTCACCTAGTGCAG”, the binding signal is reported as 9650 fluorescence intensity (a.u.).
In the case of “TCCATTGTTTTCATAAGTCCTTGGCCGATCACATGTCCAACGGAGTCACCTAGTGCAG”, the binding signal is reported as 8280 fluorescence intensity (a.u.).
For “GGGAGTGGGGTGGCATGGTGGGTAATTTTTCACCCAATAACGGAGTCACCTAGTGCAG”, the binding signal was 9870 fluorescence intensity (a.u.).
“CGCGCGCGTGGACTTTTTCGCGCCTCCGTCTCTTCGCCCTCGGAGTCACCTAGTGCAG” was tested, and the binding signal was 11000 fluorescence intensity (a.u.).
For “AACTACTCATTCCACAACTGCACAAGGATCACTCATCCTCCGGAGTCACCTAGTGCAG”, the binding signal was 9360 fluorescence intensity (a.u.).
With “GTTCGCCAGCCACCACGCGCACCGCCACTCGCTGCCTTCTCGGAGTCACCTAGTGCAG” the binding signal was 9970 fluorescence intensity (a.u.).
For “TTTGCTGTCATAATCAAACGTCCAGGCCTCTTTTGCCACCCGGAGTCACCTAGTGCAG”, the binding signal was 10200 fluorescence intensity (a.u.).
With “GGACCCAAGTGAACTTATTCCCATGCGGAACAACCTACAACGGAGTCACCTAGTGCAG” the binding signal was 9440 fluorescence intensity (a.u.).
For “TTCGTTACCAAAATTTGGCAGCAAACTGAATGTAGCCACTCGGAGTCACCTAGTGCAG”, the binding signal was 9020 fluorescence intensity (a.u.).
“ATCCCAGCCACACGCTTGCTTTGTTTTTCCTCATCCTTGCCGGAGTCACCTAGTGCAG” was tested, and the binding signal was 9020 fluorescence intensity (a.u.).
For “TTTTCGATCACATCAAAACTTTCCTACACACACAAACTTTCGGAGTCACCTAGTGCAG”, the binding signal was 8640 fluorescence intensity (a.u.).
For “TTTTTAATAGATGACGCTGTTGACTTTTTCCCACATGTTTCGGAGTCACCTAGTGCAG”, the binding signal was 24200 fluorescence intensity (a.u.).
With “GGCCACCGCTATCCATGCACACACTTACAACCTATCCCTACGGAGTCACCTAGTGCAG” the binding signal was 9850 fluorescence intensity (a.u.).
For “TCCTCGCTCGCTCACCTCACCTCACCTCACTCACCTACATCGGAGTCACCTAGTGCAG”, the binding signal was 10200 fluorescence intensity (a.u.).
